In paper PMC10710730 one finds binding data, which are given here for 3 substances.

Chains of the proteins cited; added tags and fusions are not shown. Lines headed by an entry give the natural chain unless they say otherwise; changes in a name come on top. A line that says so, or that is headed by a name, gives the form on record, which may keep a tag or linker. Residues count along the entry.
UniProt P29317, residues 24-976: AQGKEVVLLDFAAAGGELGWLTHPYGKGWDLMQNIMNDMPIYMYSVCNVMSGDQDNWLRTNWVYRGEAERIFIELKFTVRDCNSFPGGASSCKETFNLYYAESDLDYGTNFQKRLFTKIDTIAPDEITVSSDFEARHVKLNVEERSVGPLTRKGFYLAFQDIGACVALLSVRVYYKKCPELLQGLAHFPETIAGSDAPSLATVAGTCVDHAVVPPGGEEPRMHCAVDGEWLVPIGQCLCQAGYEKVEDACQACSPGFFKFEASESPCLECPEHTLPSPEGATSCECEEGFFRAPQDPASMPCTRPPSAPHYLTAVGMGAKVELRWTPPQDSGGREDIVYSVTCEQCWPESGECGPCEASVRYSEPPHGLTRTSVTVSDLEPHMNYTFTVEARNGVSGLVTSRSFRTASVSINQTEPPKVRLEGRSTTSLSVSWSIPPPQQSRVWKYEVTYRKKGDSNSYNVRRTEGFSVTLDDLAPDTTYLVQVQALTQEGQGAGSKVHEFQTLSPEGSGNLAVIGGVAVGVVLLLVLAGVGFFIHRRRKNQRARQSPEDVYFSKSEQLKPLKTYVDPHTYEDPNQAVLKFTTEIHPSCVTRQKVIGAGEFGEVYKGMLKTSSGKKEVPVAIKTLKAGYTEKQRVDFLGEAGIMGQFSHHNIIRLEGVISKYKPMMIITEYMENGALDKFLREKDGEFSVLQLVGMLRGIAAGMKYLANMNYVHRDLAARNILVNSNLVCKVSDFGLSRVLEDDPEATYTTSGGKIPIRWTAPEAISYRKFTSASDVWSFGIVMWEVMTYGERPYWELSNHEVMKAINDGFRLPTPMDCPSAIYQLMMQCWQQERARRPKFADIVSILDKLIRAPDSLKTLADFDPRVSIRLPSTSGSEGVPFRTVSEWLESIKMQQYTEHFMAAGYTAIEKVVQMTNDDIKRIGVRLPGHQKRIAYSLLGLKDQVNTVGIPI
TrkA kinase dead (KD) protein (triple mutant Y670F-Y674F-Y675F), expressed in BT-549 cells (P04629-2, form named): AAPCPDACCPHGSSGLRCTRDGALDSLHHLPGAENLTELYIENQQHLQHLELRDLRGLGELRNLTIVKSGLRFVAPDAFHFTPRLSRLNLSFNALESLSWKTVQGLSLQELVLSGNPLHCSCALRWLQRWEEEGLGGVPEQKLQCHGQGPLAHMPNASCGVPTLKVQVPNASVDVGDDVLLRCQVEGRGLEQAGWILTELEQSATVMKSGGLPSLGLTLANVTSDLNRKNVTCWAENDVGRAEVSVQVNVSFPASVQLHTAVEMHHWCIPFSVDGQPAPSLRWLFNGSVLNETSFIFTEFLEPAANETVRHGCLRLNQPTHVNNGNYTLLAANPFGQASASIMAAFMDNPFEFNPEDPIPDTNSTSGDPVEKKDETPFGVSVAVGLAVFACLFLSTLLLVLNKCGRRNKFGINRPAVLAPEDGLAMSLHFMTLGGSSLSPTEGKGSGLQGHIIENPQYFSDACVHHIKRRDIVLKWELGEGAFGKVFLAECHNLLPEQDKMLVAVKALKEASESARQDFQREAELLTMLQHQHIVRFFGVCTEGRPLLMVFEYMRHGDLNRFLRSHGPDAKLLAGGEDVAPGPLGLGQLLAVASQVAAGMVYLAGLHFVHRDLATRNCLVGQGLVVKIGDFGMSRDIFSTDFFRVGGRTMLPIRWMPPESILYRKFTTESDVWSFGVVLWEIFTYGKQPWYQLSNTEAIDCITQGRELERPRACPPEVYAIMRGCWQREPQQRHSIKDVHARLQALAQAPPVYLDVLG
TrkA (tyrosine kinase receptor TrkA, Tropomyosin kinase A), overexpressed in MDA-MB-231 cells (P04629-2, form named): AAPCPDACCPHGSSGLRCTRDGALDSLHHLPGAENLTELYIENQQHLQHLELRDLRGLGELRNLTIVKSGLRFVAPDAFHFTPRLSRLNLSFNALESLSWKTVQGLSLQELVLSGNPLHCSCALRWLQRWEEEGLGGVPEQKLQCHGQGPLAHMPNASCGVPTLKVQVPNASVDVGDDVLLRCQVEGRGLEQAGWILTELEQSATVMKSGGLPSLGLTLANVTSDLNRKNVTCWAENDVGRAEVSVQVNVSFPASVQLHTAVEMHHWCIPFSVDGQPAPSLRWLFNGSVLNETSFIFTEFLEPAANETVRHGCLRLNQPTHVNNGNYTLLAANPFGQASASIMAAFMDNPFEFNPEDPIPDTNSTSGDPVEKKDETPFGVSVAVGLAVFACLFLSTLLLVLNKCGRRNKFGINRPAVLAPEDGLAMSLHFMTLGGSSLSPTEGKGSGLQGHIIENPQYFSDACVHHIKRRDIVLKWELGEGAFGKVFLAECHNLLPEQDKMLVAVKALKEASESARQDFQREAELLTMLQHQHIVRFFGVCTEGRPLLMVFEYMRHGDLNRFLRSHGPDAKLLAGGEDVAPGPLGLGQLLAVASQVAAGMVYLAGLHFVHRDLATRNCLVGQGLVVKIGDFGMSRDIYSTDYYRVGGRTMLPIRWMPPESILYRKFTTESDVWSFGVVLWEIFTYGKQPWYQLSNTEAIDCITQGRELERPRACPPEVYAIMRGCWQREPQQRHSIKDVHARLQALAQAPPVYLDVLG

Experiment [1] has as its target EphA2, endogenous in MDA-MB-231 cells (human (endogenous in MDA-MB-231)) (UniProt P29317). Nature of the experiment: proximity ligation; Duolink in Situ-Red kit rabbit/goat on PFA-fixed cells on collagen I coated slides; TrkA/EphA2 red dots per cell counted; cells treated with proNGF (0.5 nM, 0 to 120 min), in MDA-MB-231 TrkA also with p75NTR siRNA.
Experiment [2] has as its target EphA2, endogenous in BT-549 cells (human (endogenous in BT-549)) (UniProt P29317). Described as above.

No constants are given. Whether binding was seen depends on the method and setting. In cells and extracts the contact can be indirect. Some binding calls cover weakened binding; strength is not graded here.

On to “TrkA kinase dead (KD) protein (triple mutant Y670F-Y674F-Y675F), overexpressed in MDA-MB-231 cells (from UniProt P04629-2 33-790) (receptor)”, for which the binding entry in experiment [1] is given as “binds”.

As to “TrkA kinase dead (KD) protein (triple mutant Y670F-Y674F-Y675F), expressed in BT-549 cells (from UniProt P04629-2 33-790) (receptor)”, the binding result in experiment [2] is listed as “binds”.

“TrkA (tyrosine kinase receptor TrkA, Tropomyosin kinase A), overexpressed in MDA-MB-231 cells (from UniProt P04629-2 33-790)”: the binding result in experiment [1] was “binds”.
